This is one part of the list.
Assays:
Experiment in all cases: log2 fold change, soluble protein after heating vs DMSO (PISA); higher = thermal stabilisation; K562 lysate, 10 uM; active = over 0.2 and 3.5 SD of the protein, either way, in both replicates (recomputed)
erlotinib = compound: C#Cc1cccc(Nc2ncnc3cc(OCCOC)c(OCCOC)cc23)c1 [erlotinib]
How it was run: (§1)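 Values give the log-two fold change in thermal stability against solvent controls, from duplicates. Crude K562 extract at 1 mg/mL protein, made by dounce homogenisation in PBS pH 7.4 with 1 mM MgCl2, was treated with 10 μM compound for 30 min. After 3 min heating across 48°C-58°C, aliquots were pooled, adjusted to 0.5% NP-40 at 4°C and centrifuged at 21,000xg for 90 min. The supernatant was measured by TMTpro 16plex LC-MS/MS with channel sums equalised.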

Amino acid sequences for entries named in this document (tags omitted). A change or cut given only in a name is not applied to a line headed by its entry.
UniProt Q05048: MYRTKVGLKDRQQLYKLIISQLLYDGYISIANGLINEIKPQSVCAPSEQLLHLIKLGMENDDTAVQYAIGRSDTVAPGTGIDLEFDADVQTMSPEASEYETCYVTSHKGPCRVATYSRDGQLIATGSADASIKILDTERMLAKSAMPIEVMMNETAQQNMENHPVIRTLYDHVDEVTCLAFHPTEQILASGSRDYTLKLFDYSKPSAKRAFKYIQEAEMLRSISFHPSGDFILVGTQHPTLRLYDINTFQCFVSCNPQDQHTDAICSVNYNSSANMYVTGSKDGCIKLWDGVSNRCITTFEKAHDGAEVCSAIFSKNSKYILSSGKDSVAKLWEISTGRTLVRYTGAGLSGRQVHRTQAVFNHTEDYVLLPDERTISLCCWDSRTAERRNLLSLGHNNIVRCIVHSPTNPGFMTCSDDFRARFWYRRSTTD
UniProt Q9Y6M4: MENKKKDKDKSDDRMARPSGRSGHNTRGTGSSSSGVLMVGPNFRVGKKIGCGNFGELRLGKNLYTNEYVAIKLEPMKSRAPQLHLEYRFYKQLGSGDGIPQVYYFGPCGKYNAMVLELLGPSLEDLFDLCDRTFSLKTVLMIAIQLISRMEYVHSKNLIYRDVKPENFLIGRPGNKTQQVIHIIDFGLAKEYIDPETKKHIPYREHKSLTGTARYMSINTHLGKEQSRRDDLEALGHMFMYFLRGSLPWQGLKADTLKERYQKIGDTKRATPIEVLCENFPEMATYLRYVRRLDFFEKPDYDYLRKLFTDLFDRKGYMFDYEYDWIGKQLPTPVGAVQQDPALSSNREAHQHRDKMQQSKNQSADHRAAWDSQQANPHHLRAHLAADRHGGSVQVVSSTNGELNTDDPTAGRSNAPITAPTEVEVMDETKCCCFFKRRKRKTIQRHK
UniProt Q96C57: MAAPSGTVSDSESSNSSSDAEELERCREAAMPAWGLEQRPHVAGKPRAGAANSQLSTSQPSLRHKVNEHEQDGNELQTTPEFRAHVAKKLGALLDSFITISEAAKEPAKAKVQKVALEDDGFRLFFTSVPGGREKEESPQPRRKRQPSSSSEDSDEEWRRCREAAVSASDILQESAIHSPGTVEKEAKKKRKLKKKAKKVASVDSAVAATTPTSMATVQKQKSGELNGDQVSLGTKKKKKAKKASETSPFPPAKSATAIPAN
UniProt Q92793, whole entry, looked up: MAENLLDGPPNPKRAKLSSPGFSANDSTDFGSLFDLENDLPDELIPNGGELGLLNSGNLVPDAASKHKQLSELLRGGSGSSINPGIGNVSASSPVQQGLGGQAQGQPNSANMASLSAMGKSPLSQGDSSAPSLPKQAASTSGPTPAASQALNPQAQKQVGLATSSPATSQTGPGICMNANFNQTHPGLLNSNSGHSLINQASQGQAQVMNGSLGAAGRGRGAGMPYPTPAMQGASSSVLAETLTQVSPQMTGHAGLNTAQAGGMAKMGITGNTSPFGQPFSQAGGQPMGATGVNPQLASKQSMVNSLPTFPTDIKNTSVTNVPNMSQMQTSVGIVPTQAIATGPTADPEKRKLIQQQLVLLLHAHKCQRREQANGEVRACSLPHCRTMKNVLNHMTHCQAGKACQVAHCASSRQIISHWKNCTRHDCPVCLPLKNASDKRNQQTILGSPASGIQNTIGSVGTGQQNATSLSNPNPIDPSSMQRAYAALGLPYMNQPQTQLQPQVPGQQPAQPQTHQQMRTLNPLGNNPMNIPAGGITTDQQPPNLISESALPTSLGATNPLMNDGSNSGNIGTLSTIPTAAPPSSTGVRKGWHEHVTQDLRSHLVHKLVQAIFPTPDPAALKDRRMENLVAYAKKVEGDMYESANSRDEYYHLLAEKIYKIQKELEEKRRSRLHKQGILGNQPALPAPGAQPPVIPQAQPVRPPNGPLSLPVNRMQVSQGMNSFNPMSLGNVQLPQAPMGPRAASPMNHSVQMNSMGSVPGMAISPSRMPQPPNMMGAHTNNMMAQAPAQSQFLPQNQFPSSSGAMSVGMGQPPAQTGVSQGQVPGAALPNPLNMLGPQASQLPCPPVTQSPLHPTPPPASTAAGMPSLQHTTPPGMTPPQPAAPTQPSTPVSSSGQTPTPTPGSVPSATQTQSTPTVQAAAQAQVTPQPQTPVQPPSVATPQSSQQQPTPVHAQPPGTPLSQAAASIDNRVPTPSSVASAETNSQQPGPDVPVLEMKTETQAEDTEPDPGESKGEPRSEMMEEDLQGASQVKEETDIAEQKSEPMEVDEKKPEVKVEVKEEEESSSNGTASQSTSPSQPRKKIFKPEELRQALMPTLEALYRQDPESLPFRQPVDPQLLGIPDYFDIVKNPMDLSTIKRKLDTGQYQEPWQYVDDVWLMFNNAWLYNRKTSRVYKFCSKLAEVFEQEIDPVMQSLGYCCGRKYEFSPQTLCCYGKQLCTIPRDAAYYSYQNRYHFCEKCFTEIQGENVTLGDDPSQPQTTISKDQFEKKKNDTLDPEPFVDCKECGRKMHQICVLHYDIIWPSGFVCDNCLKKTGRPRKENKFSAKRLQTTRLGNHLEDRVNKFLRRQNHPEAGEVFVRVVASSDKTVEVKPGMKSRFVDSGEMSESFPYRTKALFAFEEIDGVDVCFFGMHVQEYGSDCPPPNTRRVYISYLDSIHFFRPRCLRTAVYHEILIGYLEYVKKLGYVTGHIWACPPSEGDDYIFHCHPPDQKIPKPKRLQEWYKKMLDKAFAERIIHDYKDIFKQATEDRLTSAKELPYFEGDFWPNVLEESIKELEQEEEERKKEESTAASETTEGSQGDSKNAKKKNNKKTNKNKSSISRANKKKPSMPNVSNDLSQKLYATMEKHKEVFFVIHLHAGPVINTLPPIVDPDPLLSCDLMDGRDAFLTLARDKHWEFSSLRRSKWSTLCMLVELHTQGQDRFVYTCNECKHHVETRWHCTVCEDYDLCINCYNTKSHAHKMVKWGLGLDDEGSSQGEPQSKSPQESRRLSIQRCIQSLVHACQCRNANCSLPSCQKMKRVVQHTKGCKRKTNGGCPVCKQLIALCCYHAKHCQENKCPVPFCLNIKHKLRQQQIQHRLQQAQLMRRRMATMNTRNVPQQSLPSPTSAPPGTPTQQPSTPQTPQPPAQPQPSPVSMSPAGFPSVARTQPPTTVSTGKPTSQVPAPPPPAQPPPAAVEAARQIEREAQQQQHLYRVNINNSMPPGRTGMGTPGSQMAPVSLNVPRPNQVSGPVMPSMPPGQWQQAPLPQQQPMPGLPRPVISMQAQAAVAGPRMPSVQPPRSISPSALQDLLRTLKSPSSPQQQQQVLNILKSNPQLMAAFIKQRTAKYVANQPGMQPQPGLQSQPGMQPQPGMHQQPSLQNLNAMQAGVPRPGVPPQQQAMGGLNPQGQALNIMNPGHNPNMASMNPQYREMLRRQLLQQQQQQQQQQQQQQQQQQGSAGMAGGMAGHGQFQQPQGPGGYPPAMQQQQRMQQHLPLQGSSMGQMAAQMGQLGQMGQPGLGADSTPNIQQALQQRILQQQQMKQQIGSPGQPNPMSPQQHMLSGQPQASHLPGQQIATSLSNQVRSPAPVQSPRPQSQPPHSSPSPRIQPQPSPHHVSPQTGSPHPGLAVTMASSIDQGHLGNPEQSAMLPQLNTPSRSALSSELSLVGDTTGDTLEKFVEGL
UniProt P46109: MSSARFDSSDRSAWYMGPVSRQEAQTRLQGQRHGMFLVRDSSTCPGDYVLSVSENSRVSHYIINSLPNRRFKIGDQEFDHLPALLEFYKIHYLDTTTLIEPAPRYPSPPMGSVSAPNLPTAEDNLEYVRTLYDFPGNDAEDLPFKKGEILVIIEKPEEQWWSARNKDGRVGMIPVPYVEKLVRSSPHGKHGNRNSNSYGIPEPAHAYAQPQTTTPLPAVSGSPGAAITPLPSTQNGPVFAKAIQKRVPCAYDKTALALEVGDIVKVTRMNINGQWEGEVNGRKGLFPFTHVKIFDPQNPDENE
UniProt Q8IUI8: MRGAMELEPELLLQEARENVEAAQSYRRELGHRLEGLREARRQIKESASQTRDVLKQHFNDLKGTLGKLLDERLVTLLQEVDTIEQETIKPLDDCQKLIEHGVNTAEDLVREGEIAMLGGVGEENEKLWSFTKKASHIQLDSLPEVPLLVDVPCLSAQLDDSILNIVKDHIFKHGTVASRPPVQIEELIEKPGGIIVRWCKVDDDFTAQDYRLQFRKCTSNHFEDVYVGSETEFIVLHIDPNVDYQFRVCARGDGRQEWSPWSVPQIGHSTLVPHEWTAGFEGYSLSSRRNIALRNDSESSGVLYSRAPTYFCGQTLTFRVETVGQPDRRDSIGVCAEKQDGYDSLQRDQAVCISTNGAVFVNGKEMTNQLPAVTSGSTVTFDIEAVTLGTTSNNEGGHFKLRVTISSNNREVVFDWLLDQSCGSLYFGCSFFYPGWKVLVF
UniProt Q13620, whole entry, looked up: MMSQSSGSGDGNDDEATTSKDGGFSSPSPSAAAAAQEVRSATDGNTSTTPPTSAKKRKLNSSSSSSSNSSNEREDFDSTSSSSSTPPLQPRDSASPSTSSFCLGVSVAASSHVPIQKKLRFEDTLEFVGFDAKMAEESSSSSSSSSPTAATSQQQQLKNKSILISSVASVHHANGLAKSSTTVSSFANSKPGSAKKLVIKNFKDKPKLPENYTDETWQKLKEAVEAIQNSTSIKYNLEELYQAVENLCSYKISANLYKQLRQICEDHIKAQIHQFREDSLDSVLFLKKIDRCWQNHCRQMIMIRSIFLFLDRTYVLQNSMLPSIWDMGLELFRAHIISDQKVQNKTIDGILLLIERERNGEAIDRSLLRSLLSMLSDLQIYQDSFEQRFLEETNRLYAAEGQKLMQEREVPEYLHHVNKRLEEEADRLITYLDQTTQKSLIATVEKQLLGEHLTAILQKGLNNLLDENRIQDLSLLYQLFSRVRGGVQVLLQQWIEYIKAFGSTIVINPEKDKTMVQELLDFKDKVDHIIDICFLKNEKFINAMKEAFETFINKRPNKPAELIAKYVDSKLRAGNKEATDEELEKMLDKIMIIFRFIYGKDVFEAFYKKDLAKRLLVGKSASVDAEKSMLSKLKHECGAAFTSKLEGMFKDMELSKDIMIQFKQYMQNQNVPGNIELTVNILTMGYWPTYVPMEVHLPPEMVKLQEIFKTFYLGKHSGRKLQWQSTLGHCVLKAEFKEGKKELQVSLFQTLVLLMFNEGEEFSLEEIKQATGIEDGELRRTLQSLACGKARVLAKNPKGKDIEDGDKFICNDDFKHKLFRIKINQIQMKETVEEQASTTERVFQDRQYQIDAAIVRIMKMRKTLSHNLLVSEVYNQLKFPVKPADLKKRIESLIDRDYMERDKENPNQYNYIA
UniProt Q9H467: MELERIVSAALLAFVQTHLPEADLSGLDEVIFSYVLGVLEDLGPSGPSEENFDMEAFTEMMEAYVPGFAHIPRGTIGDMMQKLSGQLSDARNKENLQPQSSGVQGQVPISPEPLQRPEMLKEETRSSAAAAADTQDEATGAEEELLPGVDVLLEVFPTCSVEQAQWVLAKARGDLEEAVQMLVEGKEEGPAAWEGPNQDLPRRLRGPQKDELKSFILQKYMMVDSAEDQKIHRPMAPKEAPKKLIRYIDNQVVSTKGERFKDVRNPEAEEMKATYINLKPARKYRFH
UniProt P0DMU9: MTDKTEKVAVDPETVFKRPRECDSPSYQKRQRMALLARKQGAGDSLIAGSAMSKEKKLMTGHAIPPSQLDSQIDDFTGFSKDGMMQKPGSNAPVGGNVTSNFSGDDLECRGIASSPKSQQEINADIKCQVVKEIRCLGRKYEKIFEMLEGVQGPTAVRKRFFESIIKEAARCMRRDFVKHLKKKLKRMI
UniProt A4D126: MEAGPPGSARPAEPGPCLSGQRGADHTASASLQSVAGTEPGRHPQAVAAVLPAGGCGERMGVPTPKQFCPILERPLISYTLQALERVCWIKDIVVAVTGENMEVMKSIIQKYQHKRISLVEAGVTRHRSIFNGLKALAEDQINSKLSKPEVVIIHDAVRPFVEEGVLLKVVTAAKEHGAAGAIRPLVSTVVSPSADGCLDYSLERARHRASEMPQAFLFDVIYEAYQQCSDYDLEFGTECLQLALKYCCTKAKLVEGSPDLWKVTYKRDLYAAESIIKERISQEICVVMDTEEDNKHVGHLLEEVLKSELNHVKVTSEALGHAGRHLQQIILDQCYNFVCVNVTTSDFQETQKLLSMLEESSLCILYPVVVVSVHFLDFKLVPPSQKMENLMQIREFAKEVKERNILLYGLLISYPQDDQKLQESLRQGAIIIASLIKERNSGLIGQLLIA
UniProt P00387: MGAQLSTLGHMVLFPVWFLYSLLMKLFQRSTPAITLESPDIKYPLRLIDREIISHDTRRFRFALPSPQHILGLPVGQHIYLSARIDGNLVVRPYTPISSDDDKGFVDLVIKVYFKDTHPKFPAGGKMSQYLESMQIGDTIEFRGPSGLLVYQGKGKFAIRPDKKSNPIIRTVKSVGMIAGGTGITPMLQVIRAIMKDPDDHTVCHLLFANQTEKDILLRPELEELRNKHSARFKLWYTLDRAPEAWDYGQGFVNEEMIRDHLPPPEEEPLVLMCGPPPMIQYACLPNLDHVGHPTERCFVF

[1] = compound: C/C(=N\NC(=O)C1=CC(=CC=C1)S(=O)(=O)N2CCOCC2)/C3=C(C=CC(=C3)Cl)O
How it was run: as §1

[2] = compound: C1=CC(=CC=C1C2=NC3=C(N2)C=C(C=C3)C(=O)N)OC4=CC=C(C=C4)Cl
How it was run: as §1

[3] = compound: C1=CC2=C(C=CC(=C2)/C=C\3/C(=O)NC(=NCC4=CC=CS4)S3)N=C1
How it was run: as §1

[4] = compound: C1=CC2=NC=CN=C2C=C1/C=C/3\C(=O)NC(=O)S3
How it was run: as §1

[5] = compound: C1=CC=C(C=C1)C2=NC(=C(N2)C3=CC=NC=C3)C4=CC(=C(C=C4)Cl)O
How it was run: as §1

[6] = compound: C1=CC=C2C(=C1)C3=NNC4=CC=CC(=C43)C2=O
How it was run: as §1

[7] = compound: C1CCN(C1)C(=O)NC2=CC=CC(=C2)NC3=NC=C(C(=N3)NCCC4=CN=CN4)Br
How it was run: as §1

[8] = compound: C1CN(CCC1(CC2=CC=C(C=C2)Cl)N)C3=NC=NC4=C3C=CN4
How it was run: as §1

IRAK-1-4 Inhibitor I = compound: C1COCCN1CCN2C3=CC=CC=C3N=C2NC(=O)C4=CC(=CC=C4)[N+](=O)[O-] [IRAK-1-4 Inhibitor I]
How it was run: as §1

ibrutinib = compound: C=CC(=O)N1CCC[C@@H](n2nc(-c3ccc(Oc4ccccc4)cc3)c3c(N)ncnc32)C1 [ibrutinib]
How it was run: as §1

[9] = compound: CC(=O)c1cnc2ccc(-c3cc(Cl)c(O)c(Cl)c3)nc2c1N[C@H]1CC[C@H](CN(C)C)CC1
How it was run: as §1

ralimetinib = compound: CC(C)(C)Cn1c(N)nc2ccc(-c3[nH]c(C(C)(C)C)nc3-c3ccc(F)cc3)nc21 [ralimetinib]
How it was run: as §1

[10] = compound: CC(C)(O)CC(=O)NCCn1ccc2ncnc(Nc3ccc(Oc4cccc(C(F)(F)F)c4)c(Cl)c3)c21
How it was run: as §1

[11] = compound: CC(C)C1=C2N=C(C=C(N2N=C1)NCC3=CC=CC=C3)NCCCCCCN
How it was run: as §1

[12] = compound: CC1=C(C(CC(=O)N1)C2=CC=C(C=C2)C(F)(F)F)C(=O)NC3=C(C=C4C(=C3)C=NN4)F
How it was run: as §1

[13] = compound: CC1=C(C2=C(C=C1)C(=O)C3=CC=CC=C3N2CCCN)C
How it was run: as §1

[14] = compound: CC1=C(C=C(C=C1)NC(=O)C2=CC(=CC=C2)C(C)(C)C#N)NC3=CC4=C(C=C3)N=CN(C4=O)C
How it was run: as §1

[15] = compound: CC1=C(C=C(C=C1)NC(=O)C2=CC(=CC=C2)N(C)C)NC(=O)C3=CC=C(C=C3)O
How it was run: as §1

[16] = compound: CC1=CC=C(C=C1)SC2=C3C=C(SC3=CN=C2)C(=O)N
How it was run: as §1

Target | log2 fold change (erlotinib) | log2 fold change [1] | log2 fold change [2] | log2 fold change [3] | log2 fold change [4] | log2 fold change [5] | log2 fold change [6] | log2 fold change [7] | log2 fold change [8] | log2 fold change (IRAK-1-4 Inhibitor I) | log2 fold change (ibrutinib) | log2 fold change [9] | log2 fold change (ralimetinib) | log2 fold change [10] | log2 fold change [11] | log2 fold change [12] | log2 fold change [13] | log2 fold change [14] | log2 fold change [15] | log2 fold change [16]
CYP20A1 (UniProt Q6UW02) | inactive: -0.002 | inactive: -0.037 | inactive: -0.055 | inactive: -0.029 | inactive: -0.012 | inactive: -0.02 | inactive: -0.064 | inactive: 0.028 | inactive: 0 | inactive: 0.024 | inactive: -0.022 | inactive: -0.023 | inactive: -0.011 | inactive: -0.075 | inactive: -0.022 | inactive: 0.017 | inactive: 0.021 | inactive: -0.015 | inactive: -0.021 | inactive: -0.01
CSTF1 (UniProt Q05048) | inactive: -0.001 | inactive: 0.013 | inactive: -0.02 | inactive: 0.013 | inactive: -0.002 | inactive: -0.024 | inactive: 0.007 | inactive: 0.001 | inactive: 0.012 | inactive: -0.014 | inactive: 0.101 | inactive: 0.003 | inactive: 0.03 | inactive: -0.005 | inactive: -0.015 | inactive: -0.005 | inactive: 0.028 | inactive: 0.022 | inactive: -0.015 | inactive: -0.002
CSNK1G3 (UniProt Q9Y6M4) | inactive: -0.115 | inactive: -0.018 | inactive: 0.097 | inactive: 0.149 | inactive: 0.073 | inactive: -0.043 | inactive: 0.234 | inactive: 0.018 | inactive: 0.079 | inactive: 0.022 | inactive: -0.025 | active: 0.529 | inactive: 0.003 | inactive: -0.048 | inactive: -0.038 | inactive: -0.007 | inactive: 0.024 | inactive: 0.031 | inactive: -0.066 | inactive: 0.132
CUSTOS (UniProt Q96C57) | inactive: -0.024 | inactive: 0.014 | inactive: -0.029 | inactive: -0.027 | inactive: -0.019 | inactive: 0.009 | inactive: -0.014 | inactive: 0.024 | inactive: -0.005 | inactive: 0.005 | inactive: 0.055 | inactive: 0.015 | inactive: 0.041 | inactive: -0.01 | inactive: 0.029 | inactive: 0.012 | inactive: -0.017 | inactive: 0.018 | inactive: -0.03 | inactive: -0.013
CREBBP (UniProt Q92793) | inactive: -0.023 | inactive: -0.045 | inactive: -0.058 | inactive: -0.014 | inactive: -0.017 | inactive: 0.005 | inactive: -0.004 | inactive: -0.013 | inactive: 0.082 | inactive: 0 | inactive: 0.017 | inactive: 0.07 | inactive: -0.014 | inactive: 0.011 | inactive: -0.019 | inactive: -0.008 | inactive: 0.018 | inactive: 0.036 | inactive: -0.002 | inactive: 0.046
CREG1 (UniProt O75629) | inactive: 0.023 | inactive: 0.169 | inactive: -0.101 | inactive: 0.014 | inactive: -0.001 | inactive: 0.018 | inactive: 0.012 | inactive: 0.048 | inactive: -0.027 | inactive: 0.006 | inactive: 0.07 | inactive: 0.018 | inactive: 0.044 | inactive: -0.02 | inactive: 0.018 | inactive: 0.084 | inactive: 0.008 | inactive: -0.045 | inactive: -0.029 | inactive: 0.051
CRKL (UniProt P46109) | inactive: -0.002 | inactive: 0.042 | inactive: 0.029 | inactive: -0.006 | inactive: -0.011 | inactive: -0.012 | inactive: 0.002 | inactive: 0.017 | inactive: 0.014 | inactive: 0.022 | inactive: 0.006 | inactive: 0.003 | inactive: -0.011 | inactive: -0.045 | inactive: 0.002 | inactive: -0.017 | inactive: -0.007 | inactive: 0.023 | inactive: -0.001 | inactive: -0.015
CST3 (UniProt P01034) | inactive: -0.077 | inactive: 0.113 | inactive: -0.008 | inactive: -0.083 | inactive: 0.056 | inactive: -0.065 | inactive: 0.074 | inactive: 0.029 | inactive: -0.091 | inactive: -0.027 | inactive: 0.019 | inactive: 0.042 | inactive: -0.054 | inactive: 0.027 | inactive: 0.054 | inactive: 0.683 | inactive: -0.016 | inactive: -0.054 | inactive: 0.046 | inactive: -0.035
CRLF3 (UniProt Q8IUI8) | inactive: 0.033 | inactive: 0.022 | inactive: -0.004 | inactive: -0.007 | inactive: -0.001 | inactive: 0.017 | inactive: 0.006 | inactive: -0.019 | inactive: 0.021 | inactive: 0 | inactive: -0.006 | inactive: -0.026 | inactive: 0 | inactive: -0.013 | inactive: 0.009 | inactive: -0.006 | inactive: -0.004 | inactive: 0.054 | inactive: 0.021 | inactive: -0.027
CUL4B (UniProt Q13620) | inactive: 0.006 | inactive: 0.014 | inactive: 0.022 | inactive: 0.006 | inactive: -0.027 | inactive: -0.002 | inactive: -0.002 | inactive: -0.014 | inactive: 0.018 | inactive: 0.004 | inactive: -0.004 | inactive: -0.009 | inactive: 0.017 | inactive: -0.023 | inactive: -0.019 | inactive: -0.028 | inactive: -0.011 | inactive: 0.003 | inactive: -0.006 | inactive: -0.009
CUEDC2 (UniProt Q9H467) | inactive: -0.011 | inactive: 0.044 | inactive: 0.032 | inactive: 0.035 | inactive: -0.02 | inactive: 0 | inactive: -0.039 | inactive: 0.029 | inactive: -0.106 | inactive: 0.013 | inactive: 0.056 | inactive: 0.044 | inactive: 0.001 | inactive: -0.032 | inactive: 0.026 | inactive: -0.027 | inactive: -0.014 | inactive: 0.052 | inactive: 0.018 | inactive: -0.082
CREB1 (UniProt P16220) | inactive: -0.043 | inactive: 0.026 | inactive: -0.031 | inactive: 0.029 | inactive: 0.003 | inactive: 0.044 | inactive: 0.079 | inactive: 0.077 | inactive: -0.03 | inactive: -0.013 | inactive: -0.05 | inactive: -0.035 | inactive: -0.03 | inactive: 0.049 | inactive: -0.064 | inactive: -0.004 | inactive: -0.017 | inactive: -0.031 | inactive: -0.013 | inactive: 0
CTR9 (UniProt Q6PD62) | inactive: 0.019 | inactive: 0.036 | inactive: 0.036 | inactive: -0.007 | inactive: -0.011 | inactive: -0.018 | inactive: -0.02 | inactive: -0.006 | inactive: 0.004 | inactive: 0.001 | inactive: 0.023 | inactive: 0.003 | inactive: 0.016 | inactive: -0.003 | inactive: -0.001 | inactive: -0.005 | inactive: -0.005 | inactive: -0.008 | inactive: 0.013 | inactive: -0.014
CT45A10 (UniProt P0DMU9) | inactive: -0.004 | inactive: 0.018 | inactive: 0.024 | inactive: 0.002 | inactive: -0.025 | inactive: -0.008 | inactive: 0.031 | inactive: -0.004 | inactive: -0.004 | inactive: -0.012 | inactive: 0.004 | inactive: -0.004 | inactive: 0.037 | inactive: 0.035 | inactive: 0.053 | inactive: 0.018 | inactive: 0.024 | inactive: -0.043 | inactive: -0.002 | inactive: 0.008
CRPPA (UniProt A4D126) | inactive: -0.009 | inactive: -0.006 | inactive: -0.001 | inactive: 0.032 | inactive: -0.026 | inactive: -0.012 | inactive: -0.007 | inactive: 0.01 | inactive: -0.032 | inactive: 0.063 | inactive: 0.005 | inactive: 0.006 | inactive: 0.003 | inactive: -0.036 | inactive: -0.007 | inactive: -0.018 | inactive: -0.009 | inactive: 0.02 | inactive: -0.015 | inactive: -0.012
CYB5R3 isoform 3 (UniProt P00387) | inactive: -0.034 | inactive: 0.019 | inactive: 0.005 | inactive: 0.004 | inactive: 0.002 | inactive: -0.037 | inactive: 0.044 | inactive: 0.029 | inactive: 0.035 | inactive: -0.026 | inactive: -0.021 | inactive: -0.034 | inactive: -0.005 | inactive: -0.035 | inactive: -0.015 | inactive: 0.033 | inactive: 0.035 | inactive: 0.046 | inactive: 0.015 | inactive: -0.009

3 entries from above, tab-delimited.
Target	log2 fold change (erlotinib)	log2 fold change [1]	log2 fold change [2]	log2 fold change [3]	log2 fold change [4]	log2 fold change [5]	log2 fold change [6]	log2 fold change [7]	log2 fold change [8]	log2 fold change (IRAK-1-4 Inhibitor I)	log2 fold change (ibrutinib)	log2 fold change [9]	log2 fold change (ralimetinib)	log2 fold change [10]	log2 fold change [11]	log2 fold change [12]	log2 fold change [13]	log2 fold change [14]	log2 fold change [15]	log2 fold change [16]
CUL4B (UniProt Q13620)	inactive: 0.006	inactive: 0.014	inactive: 0.022	inactive: 0.006	inactive: -0.027	inactive: -0.002	inactive: -0.002	inactive: -0.014	inactive: 0.018	inactive: 0.004	inactive: -0.004	inactive: -0.009	inactive: 0.017	inactive: -0.023	inactive: -0.019	inactive: -0.028	inactive: -0.011	inactive: 0.003	inactive: -0.006	inactive: -0.009
CUEDC2 (UniProt Q9H467)	inactive: -0.011	inactive: 0.044	inactive: 0.032	inactive: 0.035	inactive: -0.02	inactive: 0	inactive: -0.039	inactive: 0.029	inactive: -0.106	inactive: 0.013	inactive: 0.056	inactive: 0.044	inactive: 0.001	inactive: -0.032	inactive: 0.026	inactive: -0.027	inactive: -0.014	inactive: 0.052	inactive: 0.018	inactive: -0.082
CREB1 (UniProt P16220)	inactive: -0.043	inactive: 0.026	inactive: -0.031	inactive: 0.029	inactive: 0.003	inactive: 0.044	inactive: 0.079	inactive: 0.077	inactive: -0.03	inactive: -0.013	inactive: -0.05	inactive: -0.035	inactive: -0.03	inactive: 0.049	inactive: -0.064	inactive: -0.004	inactive: -0.017	inactive: -0.031	inactive: -0.013	inactive: 0
